# From US20120156169A1
# Sequences of proteins named here, by UniProt entry; tags and fusion partners are left off. Residues count along the entry.
# UniProt P22607, residues 23-806: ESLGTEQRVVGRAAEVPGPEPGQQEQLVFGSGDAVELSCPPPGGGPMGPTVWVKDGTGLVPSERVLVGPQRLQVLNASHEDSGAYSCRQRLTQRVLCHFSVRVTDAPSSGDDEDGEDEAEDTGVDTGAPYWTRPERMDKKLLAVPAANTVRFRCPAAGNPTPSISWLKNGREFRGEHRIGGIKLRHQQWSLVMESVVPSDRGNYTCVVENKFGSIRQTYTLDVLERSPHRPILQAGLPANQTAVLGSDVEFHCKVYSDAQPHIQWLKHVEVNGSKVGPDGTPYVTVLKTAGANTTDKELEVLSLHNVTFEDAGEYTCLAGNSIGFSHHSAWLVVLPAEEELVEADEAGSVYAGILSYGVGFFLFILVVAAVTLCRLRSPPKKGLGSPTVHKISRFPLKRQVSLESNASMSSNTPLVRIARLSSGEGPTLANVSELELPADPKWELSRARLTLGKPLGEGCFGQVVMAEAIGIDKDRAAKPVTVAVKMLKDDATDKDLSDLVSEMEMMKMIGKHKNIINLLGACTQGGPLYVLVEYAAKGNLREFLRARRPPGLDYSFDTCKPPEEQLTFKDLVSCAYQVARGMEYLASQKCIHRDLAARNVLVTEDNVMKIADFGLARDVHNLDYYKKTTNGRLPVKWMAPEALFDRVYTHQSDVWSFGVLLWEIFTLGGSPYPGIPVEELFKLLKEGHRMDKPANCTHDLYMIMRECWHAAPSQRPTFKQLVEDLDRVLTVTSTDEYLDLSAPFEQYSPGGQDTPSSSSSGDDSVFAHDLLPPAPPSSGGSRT
# These are yes or no findings as the source states them, for the method shown. Some binding calls cover weakened binding; strength is not graded here.
# Target: fibroblast growth factor receptor (FGFR-3) (human) (UniProt P22607)
# Experiment: covalent cross-linking (BS3/DSS) on T24 and RT112 cells after FGF-1 (50 ng/ml), anti-FGFR-3 immunoprecipitation and immunoblot; dimer ~250 kDa against monomer ~120 kDa
substance,measurement,value
fibroblast growth factor receptor (FGFR-3) (from UniProt P22607 23-806),binding,binds
